Measured values reported in ChEMBL document CHEMBL4303122, “Identification of potential treatments for COVID-19 through artificial intelligence-enabled phenomic analysis of human cells infected with SARS-CoV-2” (2020).
In all, about 1,600 compounds were measured (“Hit score”: median about 0.13, highest 2% from about 0.46 on). Some of the results follow.

These molecules were tested on SARS-CoV-2 (assay: Antiviral activity against SARS-CoV-2 (USA-WA1/2020 strain) measured by imaging in HRCE cells at MOI 0.4 after 96 hrs (reported as hit score from 0-1 for on-disease vs off-disease activity: scores >0.6 considered hits)).
Format: functional, Homo sapiens
With `C=C[C@@H]1C[C@]1(NC(=O)[C@@H]1C[C@@H](Oc2ncc(OC)c3ccc(Cl)cc23)CN1C(=O)[C@@H](NC(=O)OC(C)(C)C)C(C)(C)C)C(=O)NS(=O)(=O)C1CC1` the Hit score was 0.03635.
With `CN1[C@@H]2CC[C@H]1C[C@@H](OC(=O)C(O)c1ccccc1)C2` (stereo partly specified) [HOMATROPINE] the Hit score was 0.09594.
In the case of `CN(CCOc1ccc(CC2SC(=O)NC2=O)cc1)c1ccccn1` (stereo unspecified) [ROSIGLITAZONE], the Hit score is reported as -0.06876.
In the case of `C[C@]12CC[C@H](OS(=O)(=O)O)CC1=CC[C@@H]1[C@@H]2CC[C@]2(C)C(=O)CC[C@@H]12` [PRASTERONE SULFURIC ACID], the Hit score is reported as 0.1405.
`C#C[C@]1(OC(C)=O)CC[C@H]2[C@@H]3CCC4=C[C@@H](OC(C)=O)CC[C@@H]4[C@H]3CC[C@@]21C` [ETHYNODIOL DIACETATE] gave a Hit score of 0.2574.
`Cc1cc(-n2c(=O)[nH]c(=O)n(C)c2=O)ccc1Oc1ccc(SC(F)(F)F)cc1` [TOLTRAZURIL] was tested, and the Hit score was 0.1675.
With `OCCOCCN1CCN(C(c2ccccc2)c2ccc(Cl)cc2)CC1` (stereo unspecified) [HYDROXYZINE] the Hit score was 0.00308.
In the case of `OC[C@H]1O[C@@](CO)(O[C@H]2O[C@H](CO)[C@@H](O)[C@H](O)[C@H]2O)[C@@H](O)[C@@H]1O` [SUCROSE], the Hit score is reported as 0.09545.
`O=C(C[S+]([O-])C(c1ccccc1)c1ccccc1)NO` (stereo unspecified) was tested, and the Hit score was 0.2003.
For `CC(=O)Nc1ccc(O)cc1` [ACETAMINOPHEN], the Hit score was 0.1305.
With `Nc1cccc2c1CN(C1CCC(=O)NC1=O)C2=O` (stereo unspecified) [LENALIDOMIDE] the Hit score was 0.2771.
Work on `O=P1(N(CCCl)CCCl)NCCCO1` (stereo unspecified) [CYCLOPHOSPHAMIDE ANHYDROUS] yielded a Hit score of 0.116.
`COc1ccc2[nH]c([S+]([O-])Cc3ncc(C)c(OC)c3C)nc2c1` (stereo unspecified) [OMEPRAZOLE] showed a Hit score of 0.1761.
In the case of `CNC(=O)Oc1ccccc1OC(C)C` [PROPOXUR], the Hit score is reported as 0.2239.
Molecule `CCOC(=O)[C@H](CCc1ccccc1)N[C@@H](C)C(=O)N1CCC[C@H]1C(=O)O` has a Hit score of 0.1646.
`CCc1cccc2c3c([nH]c12)C(CC)(CC(=O)O)OCC3` (stereo unspecified) [ETODOLAC] showed a Hit score of 0.1492.
In the case of `CC(=O)Oc1ccc2c(c1)CC[C@@H]1[C@@H]2CC[C@]2(C)[C@@H](O)CC[C@@H]12` [ESTRADIOL ACETATE], the Hit score is reported as 0.08004.
With `O=C(OCCN1CCOCC1)c1cccnc1Nc1cccc(C(F)(F)F)c1` [MORNIFLUMATE] the Hit score was 0.09756.
Molecule `CC1=C(CC(=O)O)c2cc(F)ccc2/C1=C\c1ccc([S+](C)[O-])cc1` (stereo unspecified) has a Hit score of 0.1447.
`CC(Oc1c(Cl)cccc1Cl)C1=NCCN1` (stereo unspecified) [LOFEXIDINE] showed a Hit score of 0.1853.
In the case of `COc1nc2ccc(Br)cc2cc1[C@@H](c1ccccc1)[C@@](O)(CCN(C)C)c1cccc2ccccc12.O=C(O)/C=C/C(=O)O` [BEDAQUILINE FUMARATE], the Hit score is reported as 0.01452.
For `C=CC(=O)N1CCC[C@@H](n2nc(-c3ccc(Oc4ccccc4)cc3)c3c(N)ncnc32)C1` [IBRUTINIB], the Hit score was 0.1068.
`[O-][n+]1ccccc1S` [PYRITHIONE] showed a Hit score of 0.2583.
With `NCCCC[C@H](N)C(=O)O.N[C@@H](CSCC(=O)O)C(=O)O.O` the Hit score was 0.1749.
`Cn1c(=O)cc(N2CCC[C@@H](N)C2)n(Cc2ccccc2C#N)c1=O` [ALOGLIPTIN] gave a Hit score of 0.1721.
In the case of `COc1cc(Nc2ncc(F)c(Nc3ccc4c(n3)N(COP(=O)(O)O)C(=O)C(C)(C)O4)n2)cc(OC)c1OC` [FOSTAMATINIB], the Hit score is reported as 0.09741.
`Nc1cccc2c(=O)[nH][nH]c(=O)c12.[Na+]` showed a Hit score of 0.2367.
`COc1ccc(-c2cc(=O)c3c(O)cc(O[C@@H]4O[C@H](CO[C@@H]5O[C@@H](C)[C@H](O)[C@@H](O)[C@H]5O)[C@@H](O)[C@H](O)[C@H]4O)cc3o2)cc1O` [DIOSMIN] was tested, and the Hit score was 0.0775.
Work on `CN1CC2c3ccccc3Oc3ccc(Cl)cc3C2C1` (stereo unspecified) [ASENAPINE] yielded a Hit score of 0.0724.
In the case of `NC(=O)NC(=O)Cc1ccccc1` [PHENACEMIDE], the Hit score is reported as 0.1369.
Molecule `CC1CS(=O)(=O)CCN1/N=C/c1ccc([N+](=O)[O-])o1` (stereo unspecified) [NIFURTIMOX] has a Hit score of 0.1929.
With `c1ccc2[nH]c(-c3cscn3)nc2c1` [THIABENDAZOLE] the Hit score was 0.1704.
In the case of `O=C1OC2(c3ccc(O)cc3Oc3cc(O)ccc32)c2ccccc21` [FLUORESCEIN], the Hit score is reported as 0.1428.
Work on `CCCCCCCCc1ccc(CCC(N)(CO)CO)cc1` [FINGOLIMOD] yielded a Hit score of -0.1599.
Work on `COc1cc(C(=O)NC2CCCNC2)cc(OC)c1OC` (stereo unspecified) [TROXIPIDE] yielded a Hit score of 0.08235.
For `O=C(O)[C@@H]1CCCN1` [PROLINE], the Hit score was 0.14.
For `CO[C@H]1C(=O)[C@]2(C)[C@@H](OC)C[C@H]3OC[C@@]3(OC(C)=O)[C@H]2[C@H](OC(=O)c2ccccc2)[C@]2(O)C[C@H](OC(=O)[C@H](O)[C@@H](NC(=O)OC(C)(C)C)c3ccccc3)C(C)=C1C2(C)C` [CABAZITAXEL], the Hit score was -0.8282.
In the case of `O=C(O)CCn1c2c(c3ccccc31)C[C@H](NS(=O)(=O)c1ccc(F)cc1)CC2` [RAMATROBAN], the Hit score is reported as 0.05053.
Work on `CC1(C)NC(=O)N(c2ccc([N+](=O)[O-])c(C(F)(F)F)c2)C1=O` [NILUTAMIDE] yielded a Hit score of 0.005506.
For `CCCCCCc1ccc(O)cc1O` [HEXYLRESORCINOL], the Hit score was 0.2337.
`O=C(/C=C\n1cnc(-c2cc(C(F)(F)F)cc(C(F)(F)F)c2)n1)NNc1cnccn1` [SELINEXOR] showed a Hit score of 0.1809.
`CCCCc1nc(C)c(CC(=S)N(C)C)c(=O)n1Cc1ccc(-c2ccccc2-c2nnn[nH]2)cc1` showed a Hit score of 0.1262.
`Cc1nc(NC(=O)N2CCC[C@H]2C(N)=O)sc1-c1ccnc(C(C)(C)C(F)(F)F)c1` [ALPELISIB] was tested, and the Hit score was 0.6194.
For `CC(C)NCC(O)COc1cccc2ccccc12` (stereo unspecified) [PROPRANOLOL], the Hit score was 0.3664.
In the case of `Nc1ncnc2c1ncn2CCOCP(=O)(O)O` [ADEFOVIR], the Hit score is reported as 0.2505.
`CCC1=C(C)CN(C(=O)NCCc2ccc(S(=O)(=O)NC(=O)N[C@H]3CC[C@H](C)CC3)cc2)C1=O` [GLIMEPIRIDE] gave a Hit score of 0.2439.
For `CCCCOc1cc(C(=O)NCCN(CC)CC)c2ccccc2n1` [DIBUCAINE], the Hit score was 0.1716.
With `CCS(=O)(=O)CCn1c([N+](=O)[O-])cnc1C` [TINIDAZOLE] the Hit score was 0.04306.
For `O=C1CCc2cc(OCCCCc3nnnn3C3CCCCC3)ccc2N1` [CILOSTAZOL], the Hit score was -0.005558.
Molecule `CNC(C)Cc1ccccc1OC` (stereo unspecified) [METHOXYPHENAMINE] has a Hit score of 0.08963.
`C=C[C@]1(C)C[C@@H](OC(=O)CS[C@@H]2C[C@H]3CC[C@@H](C2)N3C)[C@]2(C)[C@H](C)CC[C@]3(CCC(=O)[C@H]32)[C@@H](C)[C@@H]1O` [RETAPAMULIN] was tested, and the Hit score was 0.07786.
In the case of `C[C@@H](CN1CC(=O)NC(=O)C1)N1CC(=O)NC(=O)C1` [DEXRAZOXANE], the Hit score is reported as 0.2317.
Molecule `CC(=O)Nc1ccc(CC(=O)O)cc1` [ACTARIT] has a Hit score of 0.2693.
In the case of `CNCCC(Oc1ccc(C(F)(F)F)cc1)c1ccccc1` (stereo unspecified) [FLUOXETINE], the Hit score is reported as 0.07098.
Molecule `Cc1nc2n(c(=O)c1CCN1CCC(c3noc4cc(F)ccc34)CC1)CCCC2` [RISPERIDONE] has a Hit score of 0.02869.
`N=C(N)NCCC[C@H](N)C(=O)O` [ARGININE] gave a Hit score of 0.2007.
`OCc1cc(C(O)CNCCCCCCOCCCCc2ccccc2)ccc1O` (stereo unspecified) [SALMETEROL] was tested, and the Hit score was -0.09671.
`CC(C)(C)NC[C@H](O)c1ccc(O)c(CO)c1` [LEVOSALBUTAMOL] was tested, and the Hit score was -0.2317.
With `CC(=O)Nc1c(I)c(C(=O)O)c(I)c(N(C)C(C)=O)c1I` [METRIZOIC ACID] the Hit score was 0.02785.
`CCOc1ccccc1OCCN[C@H](C)Cc1ccc(OC)c(S(N)(=O)=O)c1` [TAMSULOSIN] gave a Hit score of 0.1193.
`CCCS(=O)(=O)Nc1ccc(F)c(C(=O)c2c[nH]c3ncc(-c4ccc(Cl)cc4)cc23)c1F` [VEMURAFENIB] showed a Hit score of 0.2964.
Molecule `O=C(Nc1c(Cl)cncc1Cl)c1ccc(OC(F)F)c(OCC2CC2)c1` [ROFLUMILAST] has a Hit score of 0.1334.
For `O=C(O)c1cc(-c2ccc(F)cc2F)ccc1O` [DIFLUNISAL], the Hit score was 0.07855.
Molecule `C=C1C(=O)O[C@@H]2[C@H]3C(C)=CC[C@@]34O[C@@]4(C)CC[C@@H]12` [ARGLABIN] has a Hit score of 0.02107.
Molecule `CO/N=C1\C[C@]2(C[C@@H]3C[C@@H](C/C=C(\C)C[C@@H](C)/C=C/C=C4\CO[C@@H]5[C@H](O)C(C)=C[C@@H](C(=O)O3)[C@]45O)O2)O[C@H](/C(C)=C/C(C)C)[C@H]1C` [MOXIDECTIN] has a Hit score of 0.3085.
Molecule `CC(C)C(=O)Nc1ccc([N+](=O)[O-])c(C(F)(F)F)c1` [FLUTAMIDE] has a Hit score of 0.2322.
`Cn1cnc([N+](=O)[O-])c1Sc1ncnc2[nH]cnc12` [AZATHIOPRINE] was tested, and the Hit score was 0.1841.
In the case of `CC(=O)Oc1cc2c(s1)CCN(C(C(=O)C1CC1)c1ccccc1F)C2` (stereo unspecified), the Hit score is reported as 0.2148.
`OCCN1C[C@H](O)[C@@H](O)[C@H](O)[C@H]1CO` [MIGLITOL] gave a Hit score of 0.2289.
For `COC(=O)C1=C(C)NC(C)=C(C(=O)OC(C)C)C1c1cccc2nonc12` (stereo unspecified) [ISRADIPINE], the Hit score was 0.06277.
With `C[C@@H]1CCO[C@H]2Cn3cc(C(=O)NCc4ccc(F)cc4F)c(=O)c(O)c3C(=O)N12` [DOLUTEGRAVIR] the Hit score was -0.02185.
